± gives the standard deviation of the averaged measurements. The list shows a part of the results, in another mix than the full data.
Compound: Nc1ncnc2c1ncn2[C@@H]1O[C@H](COP(=O)(O)OP(=O)(O)NP(=O)(O)O)[C@@H](O)[C@H]1O [adenylyl imidodiphosphate]
Assay: NP40-soluble protein abundance relative to vehicle (solubility fold change) (ratio); higher = more soluble protein in presence of AMP-PNP
Summary of the method: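 Jurkat crude lysate prepared with a Dounce homogeniser was treated at eight concentrations spanning 0.1 to 10 mM, 10 min at room temperature then 3 min at 37 °C. Solubilisation with 0.8% NP40 and benzonase and ultracentrifugation preceded TMT labelling of the supernatant for LC-MS/MS. Fold change against the detergent-processed vehicle was determined per replicate from vsn-normalised intensities, across three independent experiments.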

Sequences of proteins named here, by UniProt entry; tags and fusion partners are left off. A change or cut given only in a name is not applied to a line headed by its entry.
UniProt P19447: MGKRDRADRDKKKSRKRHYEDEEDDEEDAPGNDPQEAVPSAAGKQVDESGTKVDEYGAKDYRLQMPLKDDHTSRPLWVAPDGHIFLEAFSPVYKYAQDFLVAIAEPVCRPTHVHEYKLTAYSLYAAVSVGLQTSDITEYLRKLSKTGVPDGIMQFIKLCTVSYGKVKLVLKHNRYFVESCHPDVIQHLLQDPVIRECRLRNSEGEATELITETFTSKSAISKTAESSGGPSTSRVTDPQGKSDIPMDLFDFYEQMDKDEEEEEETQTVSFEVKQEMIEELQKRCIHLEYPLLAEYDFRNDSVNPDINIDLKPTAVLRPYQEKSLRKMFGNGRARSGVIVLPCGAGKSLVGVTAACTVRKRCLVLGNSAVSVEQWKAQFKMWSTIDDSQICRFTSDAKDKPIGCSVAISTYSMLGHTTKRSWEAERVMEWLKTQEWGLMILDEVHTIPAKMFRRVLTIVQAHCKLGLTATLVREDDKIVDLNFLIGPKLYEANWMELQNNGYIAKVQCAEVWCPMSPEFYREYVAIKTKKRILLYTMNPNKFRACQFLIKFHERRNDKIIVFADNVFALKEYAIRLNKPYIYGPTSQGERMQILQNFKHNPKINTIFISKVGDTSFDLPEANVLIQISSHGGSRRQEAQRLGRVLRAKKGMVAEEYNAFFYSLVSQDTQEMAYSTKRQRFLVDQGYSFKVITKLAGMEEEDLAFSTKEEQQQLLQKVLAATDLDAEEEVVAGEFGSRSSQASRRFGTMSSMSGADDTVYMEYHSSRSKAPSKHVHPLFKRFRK
UniProt P31751: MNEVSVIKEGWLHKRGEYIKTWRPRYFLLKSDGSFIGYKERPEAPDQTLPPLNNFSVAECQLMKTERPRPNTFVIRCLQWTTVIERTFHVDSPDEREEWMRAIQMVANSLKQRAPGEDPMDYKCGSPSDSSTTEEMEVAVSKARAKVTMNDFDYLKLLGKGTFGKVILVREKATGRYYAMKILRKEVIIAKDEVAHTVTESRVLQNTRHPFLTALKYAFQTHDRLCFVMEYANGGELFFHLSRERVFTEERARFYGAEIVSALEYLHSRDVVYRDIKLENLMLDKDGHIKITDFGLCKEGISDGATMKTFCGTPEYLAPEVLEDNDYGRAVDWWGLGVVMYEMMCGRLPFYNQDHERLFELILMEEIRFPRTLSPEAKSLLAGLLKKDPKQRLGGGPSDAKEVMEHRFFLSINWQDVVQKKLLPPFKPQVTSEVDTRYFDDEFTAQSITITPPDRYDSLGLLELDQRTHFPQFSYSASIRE
UniProt P28908: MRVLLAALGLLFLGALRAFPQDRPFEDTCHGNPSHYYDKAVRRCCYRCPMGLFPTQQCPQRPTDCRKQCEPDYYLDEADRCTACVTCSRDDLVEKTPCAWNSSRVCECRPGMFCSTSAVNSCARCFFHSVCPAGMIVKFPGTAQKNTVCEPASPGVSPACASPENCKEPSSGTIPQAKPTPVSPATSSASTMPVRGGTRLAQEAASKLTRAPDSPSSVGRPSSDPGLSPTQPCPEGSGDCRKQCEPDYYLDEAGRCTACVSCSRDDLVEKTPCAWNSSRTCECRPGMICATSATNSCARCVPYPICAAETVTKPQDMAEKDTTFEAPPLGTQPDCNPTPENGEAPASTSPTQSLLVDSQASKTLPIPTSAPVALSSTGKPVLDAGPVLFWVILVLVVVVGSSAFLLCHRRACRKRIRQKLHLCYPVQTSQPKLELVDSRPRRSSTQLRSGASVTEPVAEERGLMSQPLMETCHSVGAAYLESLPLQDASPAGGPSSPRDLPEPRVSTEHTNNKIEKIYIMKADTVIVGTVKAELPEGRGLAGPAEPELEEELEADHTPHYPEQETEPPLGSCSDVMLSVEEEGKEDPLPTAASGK
UniProt P31321, whole entry: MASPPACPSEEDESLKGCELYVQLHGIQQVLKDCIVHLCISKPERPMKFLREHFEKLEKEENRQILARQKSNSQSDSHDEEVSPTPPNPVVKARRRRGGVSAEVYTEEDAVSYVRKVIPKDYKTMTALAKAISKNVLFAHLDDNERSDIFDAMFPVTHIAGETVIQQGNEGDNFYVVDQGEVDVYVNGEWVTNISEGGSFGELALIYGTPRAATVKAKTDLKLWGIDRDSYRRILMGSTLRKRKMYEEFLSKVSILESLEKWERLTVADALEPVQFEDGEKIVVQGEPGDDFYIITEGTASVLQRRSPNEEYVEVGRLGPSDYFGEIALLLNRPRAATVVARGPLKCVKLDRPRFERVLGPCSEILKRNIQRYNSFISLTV
UniProt P37268: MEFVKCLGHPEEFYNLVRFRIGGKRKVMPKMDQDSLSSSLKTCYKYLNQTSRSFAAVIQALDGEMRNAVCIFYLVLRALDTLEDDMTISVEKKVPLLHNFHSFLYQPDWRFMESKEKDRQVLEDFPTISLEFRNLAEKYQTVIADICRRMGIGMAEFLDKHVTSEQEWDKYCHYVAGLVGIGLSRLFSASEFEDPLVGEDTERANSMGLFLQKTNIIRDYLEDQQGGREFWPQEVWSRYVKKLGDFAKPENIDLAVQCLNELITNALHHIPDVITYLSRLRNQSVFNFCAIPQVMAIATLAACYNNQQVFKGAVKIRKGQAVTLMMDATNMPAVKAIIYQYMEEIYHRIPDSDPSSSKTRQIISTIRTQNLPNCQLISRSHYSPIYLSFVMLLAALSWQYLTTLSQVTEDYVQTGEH
UniProt P31930: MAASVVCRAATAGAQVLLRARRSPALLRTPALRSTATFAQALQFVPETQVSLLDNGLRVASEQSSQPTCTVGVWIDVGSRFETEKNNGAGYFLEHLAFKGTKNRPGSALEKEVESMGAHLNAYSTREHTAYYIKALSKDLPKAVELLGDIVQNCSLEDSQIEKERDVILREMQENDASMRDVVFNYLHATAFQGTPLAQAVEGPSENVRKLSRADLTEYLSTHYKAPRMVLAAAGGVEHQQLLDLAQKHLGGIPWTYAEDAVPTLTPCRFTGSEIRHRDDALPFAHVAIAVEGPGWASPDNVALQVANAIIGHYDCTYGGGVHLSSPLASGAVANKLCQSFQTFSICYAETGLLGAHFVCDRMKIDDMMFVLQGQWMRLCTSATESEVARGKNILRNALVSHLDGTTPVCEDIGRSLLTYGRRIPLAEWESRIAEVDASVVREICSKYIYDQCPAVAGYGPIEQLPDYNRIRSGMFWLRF
UniProt P18859: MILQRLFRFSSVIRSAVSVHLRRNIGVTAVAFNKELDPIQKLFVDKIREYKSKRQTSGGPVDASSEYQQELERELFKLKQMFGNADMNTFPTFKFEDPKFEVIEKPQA
UniProt P30043: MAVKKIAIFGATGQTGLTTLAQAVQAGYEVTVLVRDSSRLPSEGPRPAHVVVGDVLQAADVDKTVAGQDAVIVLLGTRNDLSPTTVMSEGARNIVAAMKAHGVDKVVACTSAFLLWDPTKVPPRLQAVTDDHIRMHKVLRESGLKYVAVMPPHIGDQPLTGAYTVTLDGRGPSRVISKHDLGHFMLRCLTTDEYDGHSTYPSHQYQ
UniProt P30622: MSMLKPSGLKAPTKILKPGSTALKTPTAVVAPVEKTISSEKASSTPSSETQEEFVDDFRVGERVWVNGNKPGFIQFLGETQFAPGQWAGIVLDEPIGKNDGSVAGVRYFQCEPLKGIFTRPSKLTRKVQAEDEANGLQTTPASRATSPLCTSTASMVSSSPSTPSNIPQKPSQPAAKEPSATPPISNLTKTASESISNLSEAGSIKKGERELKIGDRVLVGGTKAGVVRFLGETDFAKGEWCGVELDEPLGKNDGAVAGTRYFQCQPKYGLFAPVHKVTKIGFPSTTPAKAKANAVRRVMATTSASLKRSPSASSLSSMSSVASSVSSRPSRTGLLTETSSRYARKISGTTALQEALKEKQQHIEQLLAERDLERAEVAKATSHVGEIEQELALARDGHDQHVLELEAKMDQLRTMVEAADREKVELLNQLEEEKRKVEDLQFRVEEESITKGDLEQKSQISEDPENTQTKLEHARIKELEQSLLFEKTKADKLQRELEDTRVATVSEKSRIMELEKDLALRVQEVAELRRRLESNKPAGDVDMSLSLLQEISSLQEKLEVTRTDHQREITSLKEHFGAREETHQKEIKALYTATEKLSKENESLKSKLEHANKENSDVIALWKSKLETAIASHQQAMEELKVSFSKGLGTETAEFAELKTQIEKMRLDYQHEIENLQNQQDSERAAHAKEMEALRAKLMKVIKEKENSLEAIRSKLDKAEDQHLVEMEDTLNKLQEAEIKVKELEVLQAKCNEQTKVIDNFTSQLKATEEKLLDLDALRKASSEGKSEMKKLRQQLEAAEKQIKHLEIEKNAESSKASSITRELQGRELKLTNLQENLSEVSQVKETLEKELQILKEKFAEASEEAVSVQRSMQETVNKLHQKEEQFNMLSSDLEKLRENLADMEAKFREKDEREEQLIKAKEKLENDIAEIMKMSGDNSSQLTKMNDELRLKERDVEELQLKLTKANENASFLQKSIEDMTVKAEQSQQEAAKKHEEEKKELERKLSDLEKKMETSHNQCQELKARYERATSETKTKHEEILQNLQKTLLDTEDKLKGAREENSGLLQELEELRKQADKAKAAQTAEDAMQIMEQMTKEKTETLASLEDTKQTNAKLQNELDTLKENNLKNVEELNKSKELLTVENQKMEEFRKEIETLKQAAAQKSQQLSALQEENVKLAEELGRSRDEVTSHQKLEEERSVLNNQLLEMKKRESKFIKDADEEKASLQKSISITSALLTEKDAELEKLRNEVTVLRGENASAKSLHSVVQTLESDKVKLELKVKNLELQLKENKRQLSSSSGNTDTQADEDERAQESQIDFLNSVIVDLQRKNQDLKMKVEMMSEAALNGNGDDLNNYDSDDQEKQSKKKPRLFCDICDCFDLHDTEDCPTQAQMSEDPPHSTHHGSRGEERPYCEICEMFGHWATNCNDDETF
UniProt P35244: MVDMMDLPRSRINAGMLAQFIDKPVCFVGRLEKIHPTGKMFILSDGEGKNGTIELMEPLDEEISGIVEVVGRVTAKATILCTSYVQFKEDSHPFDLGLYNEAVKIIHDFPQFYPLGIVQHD
UniProt P29218: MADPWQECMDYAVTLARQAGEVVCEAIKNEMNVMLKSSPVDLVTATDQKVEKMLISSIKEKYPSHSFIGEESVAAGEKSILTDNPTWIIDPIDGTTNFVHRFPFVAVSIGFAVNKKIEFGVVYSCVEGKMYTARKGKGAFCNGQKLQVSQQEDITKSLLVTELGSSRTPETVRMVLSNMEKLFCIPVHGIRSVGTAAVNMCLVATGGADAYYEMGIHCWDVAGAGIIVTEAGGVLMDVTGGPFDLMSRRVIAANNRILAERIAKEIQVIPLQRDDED
UniProt P27540, whole entry: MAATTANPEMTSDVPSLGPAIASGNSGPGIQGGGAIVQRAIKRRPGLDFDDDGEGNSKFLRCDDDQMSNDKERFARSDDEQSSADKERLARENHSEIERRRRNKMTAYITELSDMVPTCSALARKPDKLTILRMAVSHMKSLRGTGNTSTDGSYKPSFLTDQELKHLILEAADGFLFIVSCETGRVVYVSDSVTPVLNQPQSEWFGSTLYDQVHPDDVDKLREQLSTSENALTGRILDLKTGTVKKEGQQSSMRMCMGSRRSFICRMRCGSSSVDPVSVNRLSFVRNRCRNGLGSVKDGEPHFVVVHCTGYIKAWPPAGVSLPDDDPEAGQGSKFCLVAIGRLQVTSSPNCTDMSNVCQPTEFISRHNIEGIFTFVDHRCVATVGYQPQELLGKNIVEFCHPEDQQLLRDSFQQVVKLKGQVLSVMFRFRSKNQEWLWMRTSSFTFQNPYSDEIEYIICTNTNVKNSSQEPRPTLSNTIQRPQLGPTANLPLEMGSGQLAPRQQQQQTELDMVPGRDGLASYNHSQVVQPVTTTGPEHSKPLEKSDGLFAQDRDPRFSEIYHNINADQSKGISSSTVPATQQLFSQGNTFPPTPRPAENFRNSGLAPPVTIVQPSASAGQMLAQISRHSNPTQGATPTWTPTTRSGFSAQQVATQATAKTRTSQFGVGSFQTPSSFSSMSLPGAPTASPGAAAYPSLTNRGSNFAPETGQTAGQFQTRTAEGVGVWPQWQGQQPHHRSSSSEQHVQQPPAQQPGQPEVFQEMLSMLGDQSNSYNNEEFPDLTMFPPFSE
UniProt P37198: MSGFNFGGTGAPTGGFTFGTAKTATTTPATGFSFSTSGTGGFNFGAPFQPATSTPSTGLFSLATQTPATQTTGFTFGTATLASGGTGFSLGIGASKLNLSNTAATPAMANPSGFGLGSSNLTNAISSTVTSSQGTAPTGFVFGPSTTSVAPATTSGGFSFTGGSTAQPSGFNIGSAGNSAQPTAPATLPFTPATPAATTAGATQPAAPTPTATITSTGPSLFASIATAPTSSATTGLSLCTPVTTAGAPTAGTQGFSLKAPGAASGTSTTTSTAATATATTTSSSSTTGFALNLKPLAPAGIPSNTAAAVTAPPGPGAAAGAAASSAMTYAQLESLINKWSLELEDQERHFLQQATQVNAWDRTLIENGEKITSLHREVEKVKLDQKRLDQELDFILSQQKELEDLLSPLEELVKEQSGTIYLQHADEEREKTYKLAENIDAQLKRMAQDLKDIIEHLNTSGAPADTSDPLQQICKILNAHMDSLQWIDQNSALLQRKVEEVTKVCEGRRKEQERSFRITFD

Row | Target | NP40-soluble protein abundance (concentration: 1mM) | NP40-soluble protein abundance (concentration: 2mM) | NP40-soluble protein abundance (concentration: 4mM) | NP40-soluble protein abundance (concentration: 6mM) | NP40-soluble protein abundance (concentration: 8mM) | NP40-soluble protein abundance (concentration: 10mM)
1 | NDUFB7 (UniProt P17568) | 1.01 ± 0.026 | 1.07 ± 0.13 | 1 ± 0.062 | 1.08 ± 0.067 | 1.11 ± 0.068 | 1.09 ± 0.046
2 | UniProt P36402-5 | 0.952 ± 0.025 | 0.984 ± 0.03 | 0.924 ± 0.046 | 0.876 ± 0.025 | 0.8484 ± 0.0036 | 0.837 ± 0.015
3 | UniProt P31948 and related entries | 1 ± 0.017 | 1.05 ± 0.052 | 0.977 ± 0.031 | 0.939 ± 0.055 | 0.956 ± 0.03 | 0.944 ± 0.03
4 | ERCC3 (UniProt P19447) | 1.03 ± 0.03 | 1.01 ± 0.057 | 1.03 ± 0.043 | 1.03 ± 0.051 | 1.04 ± 0.052 | 1.01 ± 0.038
5 | PSMB4 (UniProt P28070) | 0.931 ± 0.043 | 0.905 ± 0.048 | 0.918 ± 0.096 | 0.971 ± 0.046 | 0.968 ± 0.071 | 1 ± 0.13
6 | PTPN1 (UniProt P18031) | 0.9727 ± 0.0064 | 0.971 ± 0.01 | 0.964 ± 0.016 | 0.9604 ± 0.0079 | 0.95 ± 0.026 | 0.954 ± 0.038
7 | UniProt P17542 and related entries | 0.988 ± 0.032 | 1.02 ± 0.043 | 0.958 ± 0.033 | 0.973 ± 0.023 | 0.949 ± 0.016 | 0.954 ± 0.031
8 | AKT2 (UniProt P31751) | 0.974 ± 0.025 | 0.95 ± 0.043 | 0.969 ± 0.034 | 0.947 ± 0.031 | 0.969 ± 0.017 | 0.96 ± 0.044
9 | UniProt P28908 and related entries | 0.998 ± 0.018 | 1.03 ± 0.071 | 0.988 ± 0.025 | 0.991 ± 0.036 | 0.9962 ± 0.004 | 1 ± 0.013
10 | PRKAR1B (UniProt P31321) | 1.036 ± 0.0019 | 1.03 ± 0.054 | 1.05 ± 0.062 | 1.01 ± 0.049 | 1.07 ± 0.052 | 1.02 ± 0.04
11 | GRK5 (UniProt P34947) | 1.02 ± 0.018 | 1.02 ± 0.068 | 1.04 ± 0.027 | 1.01 ± 0.025 | 1.03 ± 0.045 | 1.03 ± 0.032
12 | FDFT1 (UniProt P37268) | 0.993 ± 0.038 | 0.952 ± 0.027 | 0.991 ± 0.024 | 1.03 ± 0.1 | 1.05 ± 0.057 | 1.01 ± 0.078
13 | UniProt P16989 and related entries | 0.94 ± 0.041 | 0.983 ± 0.11 | 0.916 ± 0.079 | 0.895 ± 0.076 | 0.859 ± 0.095 | 0.852 ± 0.087
14 | UQCRC1 (UniProt P31930) | 1.018 ± 0.004 | 1.01 ± 0.015 | 1.01 ± 0.018 | 0.97 ± 0.016 | 0.983 ± 0.012 | 0.973 ± 0.02
15 | UniProt P33316 and related entries | 0.99 ± 0.026 | 1 ± 0.013 | 0.981 ± 0.015 | 0.993 ± 0.011 | 0.99 ± 0.016 | 0.972 ± 0.028
16 | UniProt P32929 and related entries | 0.972 ± 0.058 | 0.911 ± 0.019 | 0.989 ± 0.051 | 0.976 ± 0.069 | 1.02 ± 0.074 | 0.991 ± 0.068
17 | UniProt P18859 and related entries | 0.948 ± 0.053 | 0.899 ± 0.032 | 0.867 ± 0.062 | 0.834 ± 0.05 | 0.825 ± 0.063 | 0.857 ± 0.026
18 | BLVRB (UniProt P30043) | 0.984 ± 0.028 | 0.928 ± 0.081 | 0.991 ± 0.035 | 1.04 ± 0.037 | 1.06 ± 0.032 | 1.02 ± 0.034
19 | UniProt P30622 and related entries | 1.02 ± 0.029 | 1.08 ± 0.05 | 1.05 ± 0.031 | 1.03 ± 0.049 | 0.972 ± 0.021 | 1.03 ± 0.049
20 | UniProt P25398 | 0.934 ± 0.016 | 0.955 ± 0.044 | 0.869 ± 0.053 | 0.872 ± 0.033 | 0.81 ± 0.054 | 0.847 ± 0.049
21 | UniProt P35244 and related entries | 0.989 ± 0.022 | 0.9771 ± 0.0058 | 0.9574 ± 0.0044 | 0.981 ± 0.032 | 0.957 ± 0.037 | 0.944 ± 0.038
22 | UniProt P36639 and related entries | 1 ± 0.037 | 0.988 ± 0.059 | 1.09 ± 0.085 | 1.03 ± 0.022 | 1.07 ± 0.012 | 1.06 ± 0.065
23 | IMPA1 (UniProt P29218) | 0.99 ± 0.031 | 0.96 ± 0.022 | 0.964 ± 0.038 | 0.955 ± 0.024 | 0.942 ± 0.018 | 0.917 ± 0.048
24 | ACO1 (UniProt P21399) | 0.9805 ± 0.0096 | 0.944 ± 0.012 | 0.957 ± 0.014 | 0.968 ± 0.027 | 0.976 ± 0.027 | 0.931 ± 0.038
25 | OSBP (UniProt P22059) | 0.977 ± 0.025 | 0.95 ± 0.041 | 0.947 ± 0.025 | 0.926 ± 0.025 | 0.91 ± 0.02 | 0.892 ± 0.025
26 | UniProt P27540 and related entries | 1.02 ± 0.045 | 1.07 ± 0.067 | 1.07 ± 0.019 | 1.01 ± 0.018 | 1.03 ± 0.04 | 1.04 ± 0.035
27 | RPS19 (UniProt P39019) | 0.971 ± 0.045 | 0.958 ± 0.069 | 0.885 ± 0.077 | 0.829 ± 0.056 | 0.769 ± 0.055 | 0.852 ± 0.11
28 | NUP62 (UniProt P37198) | 1.01 ± 0.026 | 1.06 ± 0.078 | 0.997 ± 0.068 | 0.998 ± 0.019 | 1.02 ± 0.027 | 1.06 ± 0.048
29 | UniProt P17096 and related entries | 1.01 ± 0.076 | 1.19 ± 0.19 | 1.12 ± 0.047 | 1.29 ± 0.057 | 1.31 ± 0.088 | 1.74 ± 0.29
30 | UniProt P30203 and related entries | 1.024 ± 0.0096 | 1.01 ± 0.047 | 1.01 ± 0.012 | 1.01 ± 0.038 | 1.02 ± 0.026 | 1.02 ± 0.014

Complete entries, quoted from the list:
UniProt P17542 and related entries as listed: NP40-soluble protein abundance (concentration: 1mM): 0.988 ± 0.032; NP40-soluble protein abundance (concentration: 2mM): 1.02 ± 0.043; NP40-soluble protein abundance (concentration: 4mM): 0.958 ± 0.033; NP40-soluble protein abundance (concentration: 6mM): 0.973 ± 0.023; NP40-soluble protein abundance (concentration: 8mM): 0.949 ± 0.016; NP40-soluble protein abundance (concentration: 10mM): 0.954 ± 0.031
UniProt P36402-5 as listed: NP40-soluble protein abundance (concentration: 1mM): 0.952 ± 0.025; NP40-soluble protein abundance (concentration: 2mM): 0.984 ± 0.03; NP40-soluble protein abundance (concentration: 4mM): 0.924 ± 0.046; NP40-soluble protein abundance (concentration: 6mM): 0.876 ± 0.025; NP40-soluble protein abundance (concentration: 8mM): 0.8484 ± 0.0036; NP40-soluble protein abundance (concentration: 10mM): 0.837 ± 0.015
